Results published in PubChem BioAssay AID504834 (National Center for Advancing Translational Sciences (NCATS), 2011).
Screen size: about 320,000 compounds; about 22,000 (6.9%) were called active. This list was built around the results that the source calls inconclusive (neither active nor inactive); the mix of calls is not that of the screen. Calls follow the shape of the dose curve; as a rule, active = well fitted inhibition curve with a large enough effect; inconclusive = small, poorly fitted or top-dose-only effect, or another doubt; inactive = no such curve, though single readings can be large or run the other way. Potencies beside an inconclusive call are fits to weak or partial responses and may not hold up.

Assay: Primary qHTS for delayed death inhibitors of the malarial parasite plastid, 96 hour incubation
Settings: P. falciparum luciferase reporter growth; series mostly up to 28.7 µM
Summary of the method: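 Two-generation exposure (96 h) targets delayed-death phenotype. Reporter parasites carrying integrated firefly luciferase, in red cells at 2% hematocrit and 0.05% parasitemia final, kept at 37 C, 5% CO2; luminescence loss indicates inhibition.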
Potency is read from the fitted curve at half-maximal effect.

SMILES	Potency
CC1CCCCN1C(=O)C1CCN(c2nc(-c3ccccc3)nc3c2CCC3)CC1 (configuration not stated)	inconclusive: 20.8 µM [inhibitor, partial curve, poor fit]
COc1ccc(-c2nnc(-c3ccc(OCC(C)C)cc3)o2)cc1	inactive
COc1ccc(Cl)cc1NC(=O)CNc1ccc(F)cc1C	inconclusive: 9.28 µM [inhibitor, partial curve, poor fit]
Nc1nc2n(n1)C(c1cccc(Br)c1)CC(c1ccccc1)N2 (configuration not stated)	inconclusive: 11.7 µM [inhibitor, single point]
CC(=O)c1cccc(NC(=O)CSc2nc(=O)n(CCN3CCOCC3)c3c2CCCC3)c1	inconclusive: 10.4 µM [inhibitor, single point]
O=C(O)c1ccc2c(=O)n3c(nc2c1)/C(=C/c1ccc(F)cc1)CC3	inactive
O=C(N/N=C/c1ccc(F)cc1)c1cc(-c2ccco2)nc2ccccc12	inactive
O=C(Cn1c2[n+](c3ccc(C(F)(F)F)cc31)CCCCC2)Nc1c(F)cccc1F	inconclusive: 4.65 µM [inhibitor, partial curve]
O=C(Nc1ccncc1)C1CCN(S(=O)(=O)c2cccs2)CC1	inconclusive: 3.7 µM [inhibitor, partial curve]
Cc1cc2c(cc1S(=O)(=O)N1CCCC1)n(C)c(=O)c(=O)n2C	active: 13.1 µM
Cc1ccc(S(=O)(=O)N2CCOC23CCN(C(=O)C(=O)NCc2ccccc2)CC3)cc1	inconclusive: 18.5 µM [inhibitor, partial curve, poor fit]
CCOc1ccc(C2CC(=O)NC3=C2C(=O)CCC3)cc1 (configuration not stated)	inconclusive: 4.15 µM [inhibitor, single point]
CCOc1ccc(CC(=O)Nc2sc(Cc3ccccc3)c(C)c2C(N)=O)cc1OCC	active: 9.28 µM
Cc1ccc(C)c(C(=O)Nc2c(C(N)=O)oc3ccccc23)c1	inconclusive: 13.1 µM [inhibitor, single point]
O=C(Cn1ncc2c3ccccc3n(Cc3ccccc3)c2c1=O)N1CCN(c2ncccn2)CC1	inconclusive: 16.5 µM [inhibitor, single point]
Cc1ccc(S(=O)(=O)CCC(=O)OCc2ccccc2)cc1	inconclusive: 18.5 µM [inhibitor, single point]
CCN1C(=O)C(NC(C)=O)c2cc(OC)ccc21 (configuration not stated)	inactive
CCCc1cc(=O)[nH]c(SCC(=O)N(C)Cc2ccccc2)n1	inconclusive: 1.85 µM [inhibitor, partial curve, poor fit]
C1CCN(CCCNC2C3CC4CC(C3)CC2C4)C1 (configuration not stated)	inconclusive: 13.1 µM [inhibitor, single point]
Cc1oc(-c2ccc(Cl)cc2)[n+]([O-])c1C	inconclusive: 7.38 µM [inhibitor, partial curve, poor fit]
CCN(CC)C(=O)C(=O)N/N=C/c1ccc(Cl)cc1Cl	inconclusive: 18.5 µM [inhibitor, single point]
Cc1cc(OCC(O)CN)ccc1Cl (configuration not stated)	active: 0.738 µM
COC(=O)c1ccc(=O)n(Cc2ccc3c(c2)OCO3)c1	inactive
CC(=O)N=c1ncn(CC(COC(C)=O)OC(C)=O)c2nc[nH]c12 (configuration not stated)	active: 7.38 µM

Reformatted: results already given.

| SMILES | Potency |
| --- | --- |
| Cc1cc2c(cc1S(=O)(=O)N1CCCC1)n(C)c(=O)c(=O)n2C | active: 13.1 µM |
| CCN(CC)C(=O)C(=O)N/N=C/c1ccc(Cl)cc1Cl | inconclusive: 18.5 µM [inhibitor, single point] |

More results follow:

SMILES	Potency
O=C(C1CCC1)N1CCc2cc(S(=O)(=O)N3CCN(c4ccccn4)CC3)ccc21	inactive
CCN(CCCNS(=O)(=O)c1cc(-c2cc(C)no2)ccc1C)Cc1ccccc1	inactive
Cc1cccc(N2C(=O)CC(Sc3ncn[nH]3)C2=O)c1 (configuration not stated)	inconclusive: 3.7 µM [inhibitor, partial curve, poor fit]
Cc1n[nH]c(C)c1N1C(=O)c2cccc3cc(Br)cc(c23)C1=O	inconclusive: 11.7 µM [inhibitor, partial curve, poor fit]
COc1cccc(C(=O)OCCN(C)C(C)(C)C)c1	active: 8.28 µM
CCCNC(=O)C(Cc1ccccc1C)NC(=O)c1ccc(C(F)(F)F)cc1 (configuration not stated)	inactive
Cc1ccc(CN2CCN(Cc3cccn3-c3ccccn3)CC2CCO)o1 (configuration not stated)	inactive
CC1CC(C)CN(S(=O)(=O)c2ccc3c(c2)oc(=O)n3CC(=O)N2CCOCC2)C1 (configuration not stated)	inconclusive: 11.7 µM [inhibitor, single point]
CCN(CC)CCCNC(=O)C1CCN(C(=O)c2cc3sccc3n2Cc2ccc(F)cc2)CC1	inactive
O=C(CCc1ccccc1)NNC(=O)Cc1ccccc1	inconclusive: 18.5 µM [inhibitor, single point]
O=C(NCc1ccccn1)c1cccc(NS(=O)(=O)c2ccccc2)c1	inactive
CCNC(=O)CCn1nc(-c2ccc(C)cc2)c2ccccc2c1=O	inactive
COc1cc(CCC(=O)Nc2ccc(Br)c(C(F)(F)F)c2)cc(OC)c1OC	inconclusive: 14.7 µM [inhibitor, partial curve, poor fit]
O=C(CSc1nnc(CCc2ccccc2)n1-c1ccc(Cl)cc1)c1ccccc1	inconclusive: 13.1 µM [inhibitor, single point]
Oc1ccc(C2N=C(c3ccccc3)NC(c3ccccc3)=N2)cc1	active: 11.7 µM
COc1ccc(-c2cn[nH]c2C)cc1	inactive
CC(=O)C(Sc1nn(C)c(=S)s1)C(=O)Nc1ccccc1 (configuration not stated)	inconclusive: 5.86 µM [inhibitor, partial curve]
CC1=NN(C(N)=S)C(=O)C1N=Nc1cccc(Cl)c1C (configuration not stated)	inconclusive: 18.5 µM [inhibitor, single point]
Cc1ccc(NC(=O)CN(C)C(=O)c2ccccc2Sc2ccccc2C#N)cc1	inactive
CN(CCOc1ccccc1)CC(=O)Nc1ccc(S(=O)(=O)N2CCCC2)cc1	inconclusive: 7.38 µM [inhibitor, partial curve]
CC(=O)C1=C(C)NC(SCC(=O)Nc2nccs2)=C(C#N)C1c1ccccc1Cl (configuration not stated)	inconclusive: 2.08 µM [inhibitor, full curve]
COc1cccc(Nc2nc(C)cc(C)c2C#N)c1	inconclusive: 11.7 µM [inhibitor, single point]
Clc1cccc(-c2ccc3ncnc(NCc4cccnc4)c3c2)c1	active: 13.1 µM
